From publication PMC5850324, “Interactions between the Hepatitis C Virus Nonstructural 2 Protein and Host Adaptor Proteins 1 and 4 Orchestrate Virus Release” (mBio, 2018)
These are yes or no findings as the source states them, for the method shown. In cells and extracts the contact can be indirect. Binding can be weak; no strength is given. For some assays here: Sequences can lack the tags named with a protein.

Columns and labels:
[1] = biological target: T1, GLuc1-tagged μ subunit of the AP-1B complex (UniProt Q9Y6Q5); test: split reporter; protein fragment complementation assay (split luciferase): GLuc1-AP μ subunit and GLuc2-HCV protein transfected pairwise into 293T cells; luciferase at 24 h; normalized luminescence ratio (NLR), positive if NLR >25 (>2.2 SD above a random reference set); mutant panels plotted relative to WT; NS2-AP-1B also tested after treatment with compound 7745, 12i, sunitinib or erlotinib
T1 sequence: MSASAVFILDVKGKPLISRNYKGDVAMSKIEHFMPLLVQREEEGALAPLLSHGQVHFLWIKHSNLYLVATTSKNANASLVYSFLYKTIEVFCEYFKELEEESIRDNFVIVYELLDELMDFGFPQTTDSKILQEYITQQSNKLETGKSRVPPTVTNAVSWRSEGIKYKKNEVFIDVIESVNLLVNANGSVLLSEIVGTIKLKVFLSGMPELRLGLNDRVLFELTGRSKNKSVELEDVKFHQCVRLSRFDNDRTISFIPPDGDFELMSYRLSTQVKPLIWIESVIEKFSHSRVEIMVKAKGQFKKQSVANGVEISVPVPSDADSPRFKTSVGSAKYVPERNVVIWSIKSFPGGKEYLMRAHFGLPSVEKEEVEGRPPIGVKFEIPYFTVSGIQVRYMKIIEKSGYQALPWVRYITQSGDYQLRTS

[2] = biological target: T2, GLuc1-tagged μ subunit of the AP-1A complex (UniProt Q9BXS5); test: as above
T2 sequence: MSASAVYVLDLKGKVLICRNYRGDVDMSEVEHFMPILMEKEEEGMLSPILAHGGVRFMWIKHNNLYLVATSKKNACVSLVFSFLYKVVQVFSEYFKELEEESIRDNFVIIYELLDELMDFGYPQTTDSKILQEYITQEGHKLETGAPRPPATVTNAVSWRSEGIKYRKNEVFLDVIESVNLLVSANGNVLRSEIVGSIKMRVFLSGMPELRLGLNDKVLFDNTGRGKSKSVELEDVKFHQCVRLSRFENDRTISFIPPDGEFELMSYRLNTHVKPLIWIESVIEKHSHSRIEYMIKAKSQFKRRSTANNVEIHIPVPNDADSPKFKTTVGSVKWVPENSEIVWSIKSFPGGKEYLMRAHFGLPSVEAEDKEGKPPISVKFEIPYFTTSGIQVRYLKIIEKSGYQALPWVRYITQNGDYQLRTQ

[3] = biological target: T3, GLuc1-tagged μ subunit of the AP-4 complex (UniProt O00189); test: as above
T3 sequence: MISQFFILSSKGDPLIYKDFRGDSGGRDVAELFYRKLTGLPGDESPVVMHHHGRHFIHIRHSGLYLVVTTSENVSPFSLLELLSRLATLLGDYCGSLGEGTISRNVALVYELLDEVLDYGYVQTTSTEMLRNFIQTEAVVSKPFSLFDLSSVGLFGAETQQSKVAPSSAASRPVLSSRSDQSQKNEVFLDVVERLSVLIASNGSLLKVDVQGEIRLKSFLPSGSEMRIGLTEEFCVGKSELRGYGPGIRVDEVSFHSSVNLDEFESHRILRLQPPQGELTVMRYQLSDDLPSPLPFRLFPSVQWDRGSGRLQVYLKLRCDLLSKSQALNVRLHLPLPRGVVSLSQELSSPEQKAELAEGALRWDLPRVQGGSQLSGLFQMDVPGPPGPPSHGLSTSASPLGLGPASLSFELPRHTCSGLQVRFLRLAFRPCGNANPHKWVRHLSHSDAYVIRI

[4] = biological target: T4, AP-4 ectopically expressed in Huh7.5 cells (UniProt O00189); test: co-IP; membrane fractions of Huh7.5 cells ectopically expressing WT or QM GLuc-NS2 and AP-4; IP with anti-AP-4 antibodies and IgG controls; blots for AP-4 and GLuc (NS2)
T4 sequence: T3 sequence

Substance | binding [1] | binding [2] | binding [3] | binding [4]
GLuc-NS2 D207A (hepatitis C virus (J6/JFH genome)) | binds | binds | binds | –
GLuc-NS2 E200A (hepatitis C virus (J6/JFH genome)) | binds | binds | binds | –
GLuc-NS2 double mutant (L202A-L217A) (hepatitis C virus (J6/JFH genome)) | binds | binds | – | –
GLuc-NS2 quadruple mutant (L202A-L203A-L216A-L217A) (hepatitis C virus (J6/JFH genome)) | binds | binds | – | binds
